Data as given in article PMC12153781.
No constants are given. Whether binding was seen depends on the method and setting. In cells and extracts the contact can be indirect. A yes stands for co-enrichment or nearness to the bait. Other partners may have been found. Sequences can lack the tags named with a protein.

Sequences of proteins named here, by UniProt entry; tags and fusion partners are left off.
UniProt P06748: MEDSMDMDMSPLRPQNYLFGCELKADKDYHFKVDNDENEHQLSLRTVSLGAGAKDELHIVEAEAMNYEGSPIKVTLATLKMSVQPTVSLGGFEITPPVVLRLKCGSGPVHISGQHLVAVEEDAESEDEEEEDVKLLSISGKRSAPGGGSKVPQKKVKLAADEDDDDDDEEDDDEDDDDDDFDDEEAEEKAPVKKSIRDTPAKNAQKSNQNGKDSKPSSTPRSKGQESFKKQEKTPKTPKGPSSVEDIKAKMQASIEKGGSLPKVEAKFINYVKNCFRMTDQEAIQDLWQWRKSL
UniProt P16403: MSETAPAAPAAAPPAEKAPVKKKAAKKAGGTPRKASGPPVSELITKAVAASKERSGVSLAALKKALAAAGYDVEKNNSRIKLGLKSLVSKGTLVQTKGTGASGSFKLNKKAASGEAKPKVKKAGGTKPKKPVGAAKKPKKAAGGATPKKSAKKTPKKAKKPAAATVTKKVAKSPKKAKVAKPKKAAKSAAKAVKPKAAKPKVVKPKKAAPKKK

Target: T1, Flag-tagged SLFN11 (human) (UniProt Q7Z7L1)
T1 sequence: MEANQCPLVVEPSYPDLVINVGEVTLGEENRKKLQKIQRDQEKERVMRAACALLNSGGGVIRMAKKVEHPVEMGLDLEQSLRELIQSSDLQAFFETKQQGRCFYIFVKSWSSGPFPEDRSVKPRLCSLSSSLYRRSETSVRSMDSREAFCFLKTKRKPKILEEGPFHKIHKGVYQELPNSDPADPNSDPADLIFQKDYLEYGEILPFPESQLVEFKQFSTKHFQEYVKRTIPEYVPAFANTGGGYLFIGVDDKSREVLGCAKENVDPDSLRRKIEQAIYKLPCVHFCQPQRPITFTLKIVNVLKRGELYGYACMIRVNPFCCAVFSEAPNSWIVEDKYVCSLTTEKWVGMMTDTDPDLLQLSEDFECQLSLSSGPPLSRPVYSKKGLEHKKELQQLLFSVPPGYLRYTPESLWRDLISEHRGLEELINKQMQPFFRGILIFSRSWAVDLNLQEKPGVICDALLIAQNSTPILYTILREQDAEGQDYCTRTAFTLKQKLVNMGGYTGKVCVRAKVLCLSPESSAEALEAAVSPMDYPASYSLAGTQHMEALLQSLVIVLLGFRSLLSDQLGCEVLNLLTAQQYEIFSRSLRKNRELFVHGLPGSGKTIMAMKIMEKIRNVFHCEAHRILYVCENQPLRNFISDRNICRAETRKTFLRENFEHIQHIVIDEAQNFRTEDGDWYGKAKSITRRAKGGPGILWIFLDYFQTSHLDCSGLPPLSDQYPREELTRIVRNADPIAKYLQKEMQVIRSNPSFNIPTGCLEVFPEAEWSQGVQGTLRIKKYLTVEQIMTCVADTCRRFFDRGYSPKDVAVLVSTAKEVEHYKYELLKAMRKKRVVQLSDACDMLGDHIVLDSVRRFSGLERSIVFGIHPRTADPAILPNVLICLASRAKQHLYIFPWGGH
Assay: affinity purification with mass spectrometry; cells co-transfected with CMV-L1-neoRT+ and SLFN11 or control plasmid; NP-40 lysis buffer; anti-Flag immunoprecipitation at 4 °C overnight, protein A/G agarose, elution with FLAG peptide (0.1 mg/mL), LC-MS/MS

Row | binding | Substance
1 | binds | NPM1 (from UniProt P06748 1-294)
2 | binds | linker histone H1.2 (from UniProt P16403 1-213)
